Key:
SW480 cells = assay: Cell viability, sulforhodamine B (SRB) assay; type: cell-based, human; conditions: for SI CHO-K1/SW480: IC50 CHO-K1 relative to IC50 SW480; for SI HaCaT/SW480: IC50 HaCaT relative to IC50 SW480
Description: (§1) SW480 (colon adenocarcinoma) and SW620 (derived metastatic) malignant cell lines, and the non-malignant lines HaCaT (human keratinocytes) and CHO-K1 (Chinese Hamster Ovary), were obtained from the European Collection of Authenticated Cell Cultures (ECACC, Porton Down, Salisbury, UK). The cells were maintained in Dulbecco’s Modified Eagle’s Medium (DMEM), supplemented with 10% equine serum previously inactivated at 56 °C, 1% penicillin/streptomycin, and 1% non-essential amino acids, and incubated at 37 °C in an atmosphere with 5% CO2. To carry out the experiments, the serum was diluted to 3% and additionally supplemented with […] insulin, […] transferrin, and 5 ng/mL selenium. Cells were used for experimentation when they reached 80–90% confluence, using a 1X trypsin enzymatic disintegration method. To avoid contamination by Mycoplasma spp., cell cultures were periodically analyzed by polymerase chain reaction (PCR).
(§2) Cell viability was evaluated with a sulforhodamine B (SRB) assay. This technique provides an index of protein contents in living and adherent cells, whose optical density can be related to cell concentration. Initially, 20,000 cells were seeded per well in 96-well culture plates. An initial adherence period of 24 h was performed at 37 °C, 5% CO2, and after this, the medium was replaced by another that contained the hybrid compounds in different concentrations. Then, the cells were left incubating for 24 and 48 h under the same conditions previously described. After the respective incubation times, the cells were fixed with trichloroacetic acid (50% v/v) for 1 h at 4 °C and stained with 0.4% (p/v) of SRB. Subsequently, washings with 1% acetic acid were carried out to eliminate possible nonspecific bindings, and after solubilization with 10 mM Tris-base, the absorbance was read at 492 nm in a microplate reader (Mindray MR-96A). All the experiments were carried out in triplicate.

SW620 cells = assay: Cell viability, sulforhodamine B (SRB) assay; type: cell-based, human; conditions: for SI CHO-K1/SW620: IC50 CHO-K1 relative to IC50 SW620; for SI HaCaT/SW620: IC50 HaCaT relative to IC50 SW620
Description: as §1, §2

SMILES	SI CHO-K1/SW480 (SW480 cells; 24 h)	SI CHO-K1/SW480 (SW480 cells; 48 h)	SI HaCaT/SW480 (SW480 cells; 48 h)	SI CHO-K1/SW620 (SW620 cells; 24 h)	SI CHO-K1/SW620 (SW620 cells; 48 h)	SI HaCaT/SW620 (SW620 cells; 48 h)	SI HaCaT/SW480 (SW480 cells; 24 h)	SI HaCaT/SW620 (SW620 cells; 24 h)
O=c1[nH]cc(F)c(=O)[nH]1 [Compound 5-FU, 5-fluorouracil, reference compound]	0.35	0.99	0.68	0.60	0.96	0.66	–	–
COc1cc(/C=C/C(=O)c2ccc(OCCn3cc(Cn4cc(F)c(=O)[nH]c4=O)nn3)cc2)ccc1O [Compound 6a, (E)-5-fluoro-1-((1-(2-(4-(3-(4-hydroxy-3-methoxyphenyl)acryloyl)phenoxy)ethyl)-1H-1,2,3-triazol-4-yl)methyl)pyrimidine-2,4(1H,3H)-dione]	1.10	4.24	1.61	<1	1.63	0.62	0.95	<1
COc1cc(/C=C/C(=O)c2ccc(OCCCn3cc(Cn4cc(F)c(=O)[nH]c4=O)nn3)cc2)ccc1O [Compound 6b, (E)-5-fluoro-1-((1-(3-(4-(3-(4-hydroxy-3-methoxyphenyl)acryloyl)phenoxy)propyl)-1H-1,2,3-triazol-4-yl)methyl)pyrimidine-2,4(1H,3H)-dione]	1.06	2.71	1.07	0.57	1.38	0.55	1.20	0.64
COc1cc(/C=C/C(=O)c2ccc(OCCCCn3cc(Cn4cc(F)c(=O)[nH]c4=O)nn3)cc2)ccc1O [Compound 6c, (E)-5-fluoro-1-((1-(4-(4-(3-(4-hydroxy-3-methoxyphenyl)acryloyl)phenoxy)butyl)-1H-1,2,3-triazol-4-yl)methyl)pyrimidine-2,4(1H,3H)-dione]	0.86	1.86	1.17	0.31	1.09	0.68	1.49	0.54
COc1cc(/C=C/C(=O)c2ccc(OCCCCCn3cc(Cn4cc(F)c(=O)[nH]c4=O)nn3)cc2)ccc1O [Compound 6d, (E)-5-fluoro-1-((1-(5-(4-(3-(4-hydroxy-3-methoxyphenyl)acryloyl)phenoxy)pentyl)-1H-1,2,3-triazol-4-yl)methyl)pyrimidine-2,4(1H,3H)-dione]	0.79	11.56	8.36	0.34	3.74	2.71	2.71	1.15
COc1cc(/C=C/C(=O)c2ccc(OCCCCCCn3cc(Cn4cc(F)c(=O)[nH]c4=O)nn3)cc2)ccc1O [Compound 6e, (E)-5-fluoro-1-((1-(6-(4-(3-(4-hydroxy-3-methoxyphenyl)acryloyl)phenoxy)hexyl)-1H-1,2,3-triazol-4-yl)methyl)pyrimidine-2,4(1H,3H)-dione]	0.87	1.90	1.08	<1	–	1.36	1.98	<1
COc1cc(/C=C/C(=O)c2ccc(OCCCCCCCCn3cc(Cn4cc(F)c(=O)[nH]c4=O)nn3)cc2)ccc1O [Compound 6f, (E)-5-fluoro-1-((1-(8-(4-(3-(4-hydroxy-3-methoxyphenyl)acryloyl)phenoxy)octyl)-1H-1,2,3-triazol-4-yl)methyl)pyrimidine-2,4(1H,3H)-dione]	–	>3	1.18	–	–	<1	–	–
COc1cc(/C=C/C(=O)CC(=O)/C=C/c2ccc(O)c(OC)c2)ccc1O [Curcumin, curcumin]	0.24	0.40	0.32	0.12	1.63	1.30	>1	–

Reference: publication PMC10144058, “New Hybrid Scaffolds Based on 5-FU/Curcumin: Synthesis, Cytotoxic, Antiproliferative and Pro-Apoptotic Effect” (Pharmaceutics, 2023)
